For one molecule, binding results are on record in paper PMC9638859.

The target in the test is ERK (mouse (endogenous in TDiN ES cells)). Nature of the test: co-IP; endogenous immunoprecipitation from TDiN ES cell lysate, with or without induction of NANOG by Doxycycline; CoIP lysis buffer with 350 mM NaCl, 0.7% NP40; protein A/G magnetic beads; washed with TBS150; western blot. On the technique in general: Immunoblotting shows a protein as a band on a membrane.

No constants are given. Whether binding was seen depends on the method and setting. In cells and extracts the contact can be indirect. A result given as binding can be weak or reduced; the word gives no strength.

B1: NONO (protein, UniProt Q99K48 1-473)
chain: MQSNKAFNLEKQNHTPRKHHQHHHQQHHQQQQQQQQQQPPPPIPANGQQASSQNEGLTIDLKNFRKPGEKTFTQRSRLFVGNLPPDITEEEMRKLFEKYGKAGEVFIHKDKGFGFIRLETRTLAEIAKVELDNMPLRGKQLRVRFACHSASLTVRNLPQYVSNELLEEAFSVFGQVERAVVIVDDRGRPSGKGIVEFSGKPAARKALDRCSEGSFLLTTFPRPVTVEPMDQLDDEEGLPEKLVIKNQQFHKEREQPPRFAQPGSFEYEYAMRWKALIEMEKQQQDQVDRNIKEAREKLEMEMEAARHEHQVMLMRQDLMRRQEELRRMEELHNQEVQKRKQLELRQEEERRRREEEMRRQQEEMMRRQQEGFKGTFPDAREQEIRMGQMAMGGAMGINNRGAMPPAPVPPGTPAPPGPATMMPDGTLGLTPPTTERFGQAATMEGIGAIGGTPPAFNRPAPGAEFAPNKRRRY
In the case of B1, the binding entry is “binds”.
